Measured values taken from the supplement of paper PMC10470496.
This is one part of the list. Repeats are few or missing, and single values can be far off.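 The three strains are clinical Candida auris isolates from the CDC resistance isolate bank, from clades III, IV and I, grown in RPMI-1640 at 35°C. Growth is background-corrected OD600 relative to vehicle-only wells on the same plate; a hit meant over 50% inhibition in at least two strains plus a plate-corrected B-score above 0.1.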

Assays:
Assay in all cases: growth relative to vehicle control (OD600 ratio) (fraction); higher = less inhibition
Conditions in all cases: 24 h
C. auris AR-384 = tested on: C. auris AR-384
C. auris AR-386 = tested on: C. auris AR-386
C. auris AR-387 = tested on: C. auris AR-387

Row | Structure (SMILES) | growth (C. auris AR-384; 1 µM) | growth (C. auris AR-384; 10 µM) | growth (C. auris AR-386; 1 µM) | growth (C. auris AR-386; 10 µM) | growth (C. auris AR-387; 1 µM) | growth (C. auris AR-387; 10 µM)
1 | O=C1c2c(O)ccc(O)c2C(=O)c2c(NCCNCCO)ccc(NCCNCCO)c21 [Mitoxantrone 2HCl] | 0.99 | 2.17 | 1.08 | 1.41 | 1.07 | 1.33
2 | CCn1cc(C(=O)O)c(=O)c2cc(F)c(N3CCNCC3)cc21 [Norfloxacin] | 1.16 | 0.58 | 0.96 | 0.92 | 0.95 | 0.94
3 | Cc1nnc(SCC2=C(C(=O)O)N3C(=O)[C@@H](NC(=O)Cn4cnnn4)[C@H]3SC2)s1 [Cefazolin Sodium] | 1.21 | 1.21 | 1.38 | 1.35 | 1.52 | 1.35
4 | c1cn2cc(-c3ccc4cn[nH]c4c3)nc(Nc3ccc(N4CCOCC4)cc3)c2n1 [Entospletinib (GS-9973)] | 0.89 | 0.9 | 0.82 | 1.29 | 1.14 | 0.83
5 | CC[C@H]1OC(=O)[C@H](C)[C@@H](O[C@H]2C[C@@](C)(OC)[C@@H](O)[C@H](C)O2)[C@H](C)[C@@H](O[C@@H]2O[C@H](C)C[C@H](N(C)C)[C@H]2O)[C@](C)(OC)C[C@@H](C)C(=O)[C@H](C)[C@@H](O)[C@]1(C)O [Clarithromycin] | 0.87 | 1 | 0.97 | 0.95 | 0.97 | 0.98
6 | CC1(C)O[C@@H]2[C@@H](CO[C@@]3(COS(N)(=O)=O)OC(C)(C)O[C@@H]23)O1 [Topiramate] | 0.91 | 0.52 | 0.57 | 0.81 | 0.82 | 0.87
7 | Cc1ccc(C(=O)c2cc(O)c(O)c([N+](=O)[O-])c2)cc1 [Tolcapone] | 0.99 | 0.52 | 0.85 | 0.87 | 0.7 | 0.95
8 | COc1ccc(C(=O)CC(=O)c2ccc(C(C)(C)C)cc2)cc1 [Avobenzone] | 1.03 | 1.02 | 1.06 | 0.65 | 1.03 | 1.05
9 | CC(C)(C)NC(=O)[C@H]1CC[C@H]2[C@@H]3CC[C@H]4NC(=O)C=C[C@]4(C)[C@H]3CC[C@]12C [Finasteride] | 1.15 | 0.89 | 1.06 | 1.16 | 1.07 | 1.08
10 | CCCc1nc(C(C)(C)O)c(C(=O)OCc2oc(=O)oc2C)n1Cc1ccc(-c2ccccc2-c2nnn[nH]2)cc1 [Olmesartan Medoxomil] | 1.03 | 1.08 | 1.09 | 1.23 | 1.17 | 1.1
11 | CC(=O)SCC(Cc1ccccc1)C(=O)NCC(=O)OCc1ccccc1 (stereo not given) [Racecadotril] | 1.05 | 1.08 | 1.06 | 0.73 | 0.85 | 0.64
12 | NC(=O)c1ncn([C@@H]2O[C@H](CO)[C@@H](O)[C@H]2O)c1O [Mizoribine] | 1.02 | 1.13 | 1.04 | 1.22 | 0.8 | 0.91
13 | CCCc1nc2c(C)cc(-c3nc4ccccc4n3C)cc2n1Cc1ccc(-c2ccccc2C(=O)O)cc1 [Telmisartan] | 1.34 | 1.12 | 0.96 | 0.87 | 0.87 | 0.74
14 | Cc1ccc(NC(=O)c2ccc(CN3CCN(C)CC3)cc2)cc1Nc1nc(-c2cccnc2)cs1 [Masitinib (AB1010)] | 1.05 | 0.93 | 1.04 | 1.23 | 0.93 | 1.07
15 | O=C(CCCN1CC=C(n2c(=O)[nH]c3ccccc32)CC1)c1ccc(F)cc1 [Droperidol] | 0.82 | 0.82 | 1.08 | 0.83 | 0.82 | 0.69
16 | Cc1c(Cl)cccc1Nc1ccccc1C(=O)O [Tolfenamic Acid] | 0.68 | 0.8 | 0.92 | 0.73 | 0.89 | 0.63
17 | Cc1cn([C@@H]2C[C@@H](O)[C@H](CO)O2)c(=O)[nH]c1=O [Telbivudine] | 1.1 | 0.65 | 0.51 | 0.88 | 0.75 | 0.85
18 | C[C@H](CCC(=O)O)[C@H]1CC[C@H]2[C@@H]3C(=O)C[C@@H]4CC(=O)CC[C@]4(C)[C@H]3CC(=O)[C@]12C [Dehydrocholic acid] | 0.85 | 0.83 | 0.92 | 0.91 | 0.79 | 0.55
19 | O=C(NC1CCN(CCCCC2(C(=O)NCC(F)(F)F)c3ccccc3-c3ccccc32)CC1)c1ccccc1-c1ccc(C(F)(F)F)cc1 [Lomitapide] | 1.04 | 1.37 | 0.85 | 1.07 | 0.88 | 1.04
20 | Cc1[nH]c(=O)c(C#N)cc1-c1ccncc1 [Milrinone] | 1.05 | 0.81 | 0.71 | 1.08 | 1.03 | 0.96

Part of the list above, as tab-separated lines.
Row	Structure (SMILES)	growth (C. auris AR-384; 1 µM)	growth (C. auris AR-384; 10 µM)	growth (C. auris AR-386; 1 µM)	growth (C. auris AR-386; 10 µM)	growth (C. auris AR-387; 1 µM)	growth (C. auris AR-387; 10 µM)
15	O=C(CCCN1CC=C(n2c(=O)[nH]c3ccccc32)CC1)c1ccc(F)cc1 [Droperidol]	0.82	0.82	1.08	0.83	0.82	0.69
16	Cc1c(Cl)cccc1Nc1ccccc1C(=O)O [Tolfenamic Acid]	0.68	0.8	0.92	0.73	0.89	0.63
17	Cc1cn([C@@H]2C[C@@H](O)[C@H](CO)O2)c(=O)[nH]c1=O [Telbivudine]	1.1	0.65	0.51	0.88	0.75	0.85
18	C[C@H](CCC(=O)O)[C@H]1CC[C@H]2[C@@H]3C(=O)C[C@@H]4CC(=O)CC[C@]4(C)[C@H]3CC(=O)[C@]12C [Dehydrocholic acid]	0.85	0.83	0.92	0.91	0.79	0.55
